Literature values as cited in publication PMC7520419 (The AAPS Journal, 2020).
Where two headings read alike, the source gives them in different places.

Settings: ref published clinical data (Table I), cited from earlier work
Note: test concentration or dose not given here.

Structure (SMILES)	Observed AUC(0-inf) Fasted (Model 1)	Observed Cmax Fasted (Model 1)	Observed AUC(0-inf) Fed (Model 1)	Observed Cmax Fed (Model 1)	Observed AUC(0-inf) Fasted (Model 2)	Observed Cmax Fasted (Model 2)	Observed AUC(0-inf) Fed (Model 2)	Observed Cmax Fed (Model 2)
NS(=O)(=O)c1cc(C(=O)O)c(NCc2ccco2)cc1Cl [Furosemide]	2090 ng·h/mL	754 ng/mL	1670 ng·h/mL	428 ng/mL	1940 ng·h/mL	754 ng/mL	1590 ng·h/mL	428 ng/mL
CCCCc1oc2ccccc2c1C(=O)c1cc(I)c(OCCN(CC)CC)c(I)c1 [Amiodarone]	14000 ng·h/mL	380 ng/mL	33000 ng·h/mL	1400 ng/mL	14000 ng·h/mL	380 ng/mL	33000 ng·h/mL	1400 ng/mL
